No constants are given. Whether binding was seen depends on the method and setting. Binding calls can cover weak binding; strength is not graded here. For some assays here: Binding seen in cells or lysates may run through a third protein. For some assays here: Tags and fused reporters may be left off the sequences shown.

In experiment [1] the target is IbBT4 (sweetpotato BTB-TAZ domain protein), pBD-IbBT4 bait (sweetpotato (Ipomoea batatas (L.) Lam.)). As to the kind of experiment: two-hybrid; pBD-IbBT4 bait and pAD-BEE2 prey in Y2H Gold yeast; growth and blue colour on SD/-Trp/-His/-Leu/-Ade/X-a-Gal plates, 30°C, 5-8 days.
In experiment [2] the target is IbBT4 in pSPYNE-35S (BiFC fusion with the N-terminal part of YFP) (sweetpotato (Ipomoea batatas (L.) Lam.)). Nature of the experiment: split reporter; BiFC: IbBT4 in pSPYNE-35S and BEE2 in pSPYCE-35S, agroinfiltrated N. benthamiana leaves, YFP signal by confocal microscopy after 2 days.

B1: AtBEE2 (BR-ENHANCED EXPRESSION 2 of Arabidopsis), pAD prey (protein, UniProt Q93VJ4 1-304)
chain: MDLSVLDRLKWLQQQQMVSPEFLQILGSDGREELKRVESYLGNNNDELQSFRHFPEFGPDYDTTDGCISRTSSFHMEPVKNNGHSRAITLQNKRKPEGKTEKREKKKIKAEDETEPSMKGKSNMSNTETSSEIQKPDYIHVRARRGEATDRHSLAERARREKISKKMKCLQDIVPGCNKVTGKAGMLDEIINYVQSLQQQVEFLSMKLSVINPELECHIDDLSAKQFQAYFTGPPEGDSKQSIMADFRSFPLHQQGSLDYSVINSDHTTSLGAKDHTSSSWETHSQCLYNSLRTDSVSNFFSLK
With B1, in experiment [1], the binding result was “binds”.

B2: AtBEE2 in pSPYCE-35S (BiFC fusion with the C-terminal part of YFP) (protein, UniProt Q93VJ4 1-304)
chain: B1 chain
Turning to B2, in experiment [2], the binding result is “binds”.

(Values after PMC7324939.)
